No constants are given. Whether binding was seen depends on the method and setting. In cells and extracts the contact can be indirect. A result given as binding can be weak or reduced; the word gives no strength.
How the values were obtained:
[1] = biological target: EsaD_(1-477)-his (Staphylococcus aureus) (UniProt Q2G179); assay: pull-down + SEC
[2] = biological target: EsxD with a C-terminal twin-strep tag (Staphylococcus aureus) (UniProt Q2G180); assay: pull-down + SEC; six genes co-expressed in E. coli M15 pREP4; complexes purified sequentially via the his-tag on EsaD^H528A (nickel) and the twin-strep tag on EsxD (strep-tactin), then SEC in 50 mM HEPES pH 7.5, 150 mM NaCl; components identified by immunoblot or mass spectrometry

Amino acid sequences for entries named in this document (tags omitted). Residues count along the entry.
UniProt Q2G179, residues 1-477: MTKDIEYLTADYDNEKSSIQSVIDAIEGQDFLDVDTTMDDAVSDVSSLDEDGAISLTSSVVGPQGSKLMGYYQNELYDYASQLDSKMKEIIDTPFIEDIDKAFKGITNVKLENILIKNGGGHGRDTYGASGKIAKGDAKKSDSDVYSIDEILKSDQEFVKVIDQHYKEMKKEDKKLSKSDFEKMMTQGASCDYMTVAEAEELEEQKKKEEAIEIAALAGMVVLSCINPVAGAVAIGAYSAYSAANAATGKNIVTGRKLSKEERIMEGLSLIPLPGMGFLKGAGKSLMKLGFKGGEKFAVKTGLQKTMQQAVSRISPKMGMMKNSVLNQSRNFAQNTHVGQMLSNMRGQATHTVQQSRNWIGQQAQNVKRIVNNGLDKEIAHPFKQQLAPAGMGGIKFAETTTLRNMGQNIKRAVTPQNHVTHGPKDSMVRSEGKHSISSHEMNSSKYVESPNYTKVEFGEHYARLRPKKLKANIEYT

## EsxC (from UniProt Q2G183)
[1]
  binding: binds
[2]
  binding: binds

## EsxD (co-expressed with truncated EsaD) (from UniProt Q2G180)
[1]
  binding: binds

B1: EsxB (protein, UniProt Q2G182 1-104)
chain: MGGYKGIKADGGKVDQAKQLAAKTAKDIEACQKQTQQLAEYIEGSDWEGQFANKVKDVLLIMAKFQEELVQPMADHQKAIDNLSQNLAKYDTLSIKQGLDRVNP
[2]
  binding: binds

B2: EsaE (protein, UniProt Q2G181 1-224)
chain: MKDVKRIDYFSYEELTILGGSKLPLVNFELFDPSNFEEAKAALIEKELVTENDKLTDAGFKVATLVREYISAIVNIRINDMYFAPFSYEKDEYILLSRFKNNGFQIRIINKDIAWWSIVQSYPLLMRQEKSNDWDFKQIDDETLENLNNESIDTIGRVLEIEIYNHQGDPQQSLYNIYEQNDLLFIRYPLKDKVLNVHIGVINTFIRELFGFDTDENHINKAEE
[2]
  binding: binds

B3: EsaG (protein, UniProt Q2G178 1-163)
chain: MTFEEKLSKIYNEIANEISSMIPVEWEKVYTMAYIDDGGGEVFFNYTKPGSDDLNYYTNIPKEYNISVQVFDDLWMDLYDLFEELRDLFKEEDLEPWTSCEFDFTREGELKVSFDYIDWINSEFGQIGRQNYYKYRKFGILPETEYEINKVKEIEQYIKELEE
[2]
  binding: binds
